Values from PubChem BioAssay AID1508597 (Cure First, 2020).
Shown is an unselected part of the about 2,100 reagents, in one setting of the screen. 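Calls flag viability under 80% in either arm, not effects specific to rucaparib; the reference for percent is not stated.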 Reagent sequences are not shown. The record does not give: the 100% reference.

Purpose: 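Knock-downs altering ovarian cancer cell survival with or without PARP inhibitor rucaparib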 (primary screen)
System: human ovarian carcinoma lines grown from tumours: OCI-P5x (papillary serous) and OCI-C5x (clear cell)
Reagents: siRNA pool against human genes, 1.25 pmol siRNA per well
Duration: 72 h or 96 h, depending on the cell culture
Challenge: rucaparib 20 µM (about IC30) or vehicle, present until read-out
Rucaparib or vehicle: Rucaparib
Cell line: OCI-C5x (clear cell)
Measured: 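ATP luminescence measured at 72 or 96 h according to the culture, then normalised and expressed as percent viability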
Direction: viability, normalised: higher = more viable cells remaining
Active means: 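Active when normalised viability falls below 80 percent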
Meaning of the calls: active = viability under 80%; inactive = viability 80% or more

With PLCD4, technical replicate 1, the entry reads viability, normalised (%) = 62.7; active. PLCD4, technical replicate 2 scored viability, normalised (%) = 61.9; active. PLCD4, technical replicate 3 scored viability, normalised (%) = 47.9; active. For NAALADL1, technical replicate 1, the values are viability, normalised (%) = 42.6; active. With NAALADL1, technical replicate 2 the deposit lists viability, normalised (%) = 55.5; active. NAALADL1, technical replicate 3 scored viability, normalised (%) = 46.9; active.

Hits, of those listed so far:
PLCD4, technical replicate 1: viability, normalised (%) = 62.7; Outcome = active
PLCD4, technical replicate 2: viability, normalised (%) = 61.9; Outcome = active
PLCD4, technical replicate 3: viability, normalised (%) = 47.9; Outcome = active
NAALADL1, technical replicate 1: viability, normalised (%) = 42.6; Outcome = active
NAALADL1, technical replicate 2: viability, normalised (%) = 55.5; Outcome = active
NAALADL1, technical replicate 3: viability, normalised (%) = 46.9; Outcome = active

Continued:
RPS6KL1, technical replicate 1 scored viability, normalised (%) = 54; active. With RPS6KL1, technical replicate 2, the entry reads viability, normalised (%) = 57.7; active. RPS6KL1, technical replicate 3 showed viability, normalised (%) = 73.4; active. SMARCD2, technical replicate 1 showed viability, normalised (%) = 31.7; active. SMARCD2, technical replicate 2 gave viability, normalised (%) = 32.2; active. For SMARCD2, technical replicate 3 the deposit lists viability, normalised (%) = 29; active.
